Results published in PubChem BioAssay AID1508600 (Functional Genomics Laboratory (NCATS/FGL), 2020).
Among all 53,000 sequences or so, about 3,700 (7%) were called active.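 The calls were made as follows: active = gene knockdowns whose robust z-score for IL-1 alpha signal is at least 2 or at most -2, so actives lie on both sides; inactive = the rest.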 The list shows a part of the results.

Experiment: Components of the Cytosolic LPS Sensing Pathway: Gene Identification via Genome-wide siRNA Screen;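 also: robust z of the log signal after scaling to non-targeting control siRNA wells of the plate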
Conditions: RAW264.7 macrophages, IL-1a HTRF, actives lie on both sides, screened at 100 nM (by protocol), cells primed 5 h with Pam3CSK4 first
Summary of the method: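 Mouse macrophage line RAW264.7 is transfected with siRNA (100 nM final), grown 48h, primed with TLR ligand Pam3CSK4 5 h and given intracellular LipidA 24 h. IL-1a in supernatant is read by HTRF and viability by luminescence.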

Row | Sequence | z-score
1 | GGAAAUGGAAGAGCAAAUUTT against Nol11 | inactive: 0.836
2 | GGAAAUGGCUAUUGAUAUCTT against Actl6b | inactive: 0.126
3 | CCCUUUCGAGGUGGUAAAATT against Slc25a21 | inactive: 0.11
4 | GCAUCUGGAAUUAUGGGUCTT against 2310030G06Rik | inactive: 0.284
5 | GGCUUUUCCAAGACCUUUCTT against Awat2 | inactive: 0.819
6 | GCUGGGUUAUGAGAUUUCUTT against Tns2 | active: 2.26
7 | CCUCGGUCAGAUUCCUGAUTT against Phpt1 | inactive: 0.101
8 | GGAAAUUGGAGAUUUUUCCTT against Ccdc54 | inactive: -1.02
9 | GAUGUCCUUCACCUUUGCCTT against Atp5d | inactive: -1.9
10 | GCCCAGGUCUAAUGUCUAATT against Tac4 | inactive: 0.234
11 | GGGCUCAUGGCUUUGUUUUTT against Ciao2b | inactive: 0.215
12 | GGUAGAGAACCAUUUGCUGTT against Dtnbp1 | inactive: -0.376
13 | CGAAUGGCAUACAAUAACCTT against C1qtnf7 | inactive: 0.278
14 | UAGAAUUGAUUGAGGACUCTT against Ly6c1 | inactive: 0.602
15 | GGGACUUUGGUCAAUAAUGTT against Tcf19 | inactive: 0.247
16 | CCAGCAUUGAUAGACAGAUTT against Fam234a | inactive: 0.836
17 | GGAUUUAAUGUACUAUGUGTT against 2210408I21Rik | inactive: -1.21
18 | GGAAUGUGUUCCAUAAUUUTT against Syn2 | inactive: -0.201
19 | CCCACUAAAAUCCUAUCUCTT against Ggta1 | active: -2.57
20 | GGCCUAUCUUCCCAGGAAATT against Mapk1 | inactive: 0.969
21 | GGUCCAAGUUACAGCAAAATT against Vmn1r80 | inactive: 0.989
22 | GGAGCUGGAUUCGACGUGATT against Cacna1c | inactive: -0.775

Row | Sequence | z-score
23 | GGAAAUGUGGGAGAAAAUATT against H2-M1 | inactive: -1.36
24 | GGAUGAAGAUGUGUCAAUATT against Api5 | inactive: 0.889
25 | GGUCUGUUCUGUACUGAAGTT against Pde4dip | inactive: -0.0657
26 | GGGAAUUUAAUUUUUCGUGTT against Sfn | inactive: -0.642
27 | GGACUGAUUGCUUUAGUAATT against Olfr1184 | inactive: -0.381
28 | GGUGCUGAUUGACCUAACATT against Wdtc1 | active: -2.24
29 | GGGUCCUGAUAAUGUCCUATT against Tlr1 | inactive: 1.61
30 | GGAUCAGAUAAAAUACCAATT against Oas2 | inactive: 0.997
31 | GGUCACAACCAUGAAGAGCTT against 1700093K21Rik | inactive: -0.619
32 | GCAAUCUUAGGUUCAUGGUTT against Vmn2r-ps105 | inactive: 0.511
33 | GGCCAGCUAGAGUUAUAUGTT against Foxred2 | inactive: 0.58
34 | GCUGUCAUUCUGUGGUCCATT against Olfr538 | inactive: -0.346
35 | GCGGAGAGUUAAUGUUUCUTT against Cbx3 | inactive: 0.188
36 | GGGAUCUUCGGAACUUAGUTT against Pde1a | inactive: 0.554
37 | GGAUUUUCGGGACUCUUUATT against Sfmbt1 | inactive: 1.17
38 | GGAGAACGUGGUACAAAGUTT against Sncg | inactive: -1.27
39 | GCGUGUCACACUAUGAGUUTT against Vwa1 | inactive: 0.626
40 | GGUGGUAGAACUGUUAAAATT against Klc2 | inactive: 0.311
41 | CGGGCAAUGUCAGAUUGUGTT against Vmn1r75 | inactive: 1.41
42 | GGAAUUUGAGAUCUACACUTT against Zfp398 | inactive: 1.59
43 | GGGUUGGAAGCAAUUGCUGTT against Ubtd1 | inactive: 0.544
44 | GGAGUCUCCUAAAAAAGGATT against Tcof1 | inactive: 0.79

Row | Sequence | z-score
45 | GGCAUUGAAGCAUCUGUUCTT against Cd180 | inactive: -1.7
46 | GGAAGUCUUGAGCCUGCUUTT against Folr2 | inactive: -0.555
47 | CGAUCUGAGUUUUAUCUCUTT against Nrsn2 | inactive: 1.78
48 | GCUCGAUAUCACAGAGAUUTT against Ces5a | inactive: -0.177
49 | GGGUCAUCACCAUCAUGUCTT against Slc22a5 | inactive: -0.985
50 | GCCGGGACCAUGAUUAUAGTT against Rbm10 | active: 2.7
51 | CCUAGGUUGUCGCCAGGUUTT against Nkx2-3 | inactive: 0.722
52 | GGAUUACCAAUCGGCCAAGTT against Egr3 | inactive: 1.25
53 | CGAAGCAUUAGAUUUUGACTT against Mcm9 | inactive: 0.177
54 | GGCCUUCAACGAUUCAAUCTT against Olfr770 | inactive: 1.35
55 | GCUACAGCAGACAUAGAAATT against Sparcl1 | inactive: 0.0109
56 | GGGAAUUAGCCAUUAUAACTT against Pcdhb11 | inactive: 0.0338
57 | GGAAAAUCAUUUCAUCGUGTT against Aurkc | inactive: 0.489
58 | GGCUGUUCAGAAGUUCACGTT against Saa3 | inactive: -1.25
59 | GGACUUUAGCAAAAUCGGCTT against Gm5535 | inactive: 0.137
60 | GGGACUCUCAAAAUUCACUTT against Bnc2 | inactive: 0.423
61 | GGUUGGCACAACUGUGUACTT against Cr2 | inactive: -0.0754
62 | GGAUACGAGACAAUGAGAATT against Kctd2 | inactive: -0.404
63 | CCUGUUGGACCUUAUUCCCTT against Plbd1 | inactive: 0.694
64 | GGAACAAGAGAAGCAAAUATT against Ifitm7 | inactive: -0.278
65 | GGUAUUUGAAGAUGUCAAATT against Abcd1 | inactive: -0.479
66 | GGUUCACUUCAGUGUAUAUTT against Morf4l1 | inactive: -0.00162

Entries 50 through 53 from above:
Row | Sequence | z-score
50 | GCCGGGACCAUGAUUAUAGTT against Rbm10 | active: 2.7
51 | CCUAGGUUGUCGCCAGGUUTT against Nkx2-3 | inactive: 0.722
52 | GGAUUACCAAUCGGCCAAGTT against Egr3 | inactive: 1.25
53 | CGAAGCAUUAGAUUUUGACTT against Mcm9 | inactive: 0.177

Continued.

Row | Sequence | z-score
67 | GGUCAUAAGUUUCUCAUCUTT against Gdpd1 | inactive: -0.476
68 | GGAUUAGACCUAUGGUGCUTT against Dpp6 | inactive: 0.77
69 | GGUGUUUUUGAUGAGAGUGTT against Ints5 | inactive: 0.612
70 | GGAAUGAAUAAGUAGAGACTT against Unc5cl | inactive: -0.137
71 | GGCUUUACAAAUCUUGUCUTT against Gpx6 | inactive: -1.31
72 | GCCUCUUAUUUGGUUACGATT against Best3 | inactive: 0.605
73 | GGCUAGUUGCCAUGAUGCATT against Spink1 | inactive: -1.22
74 | GGAACUGAUCUGGAAGAAUTT against Sord | inactive: -0.392
75 | GGUUGAGUUCCUGUAACUUTT against Mat1a | inactive: -0.732
76 | GUUCUACAUCAAGACAUCCTT against Crabp1 | inactive: -1.27
77 | GGACGAUUCAAGGUAACAUTT against Esrrg | inactive: -1
78 | GCAACAUCACACAAGACCATT against Il13 | inactive: 0.731
79 | GCUAGAGUAUGAGAACUUCTT against Cdc14b | inactive: 0.233
80 | GGAAUGUUUGGUGCUAUGATT against Flvcr2 | active: 3.4
81 | GGACUUCUUGGACCUACUUTT against F5 | inactive: -1.55
82 | GCGAUCAGUACUGAAGGAATT against Siglecf | inactive: -1.27
83 | CCUUCUGUUGCUUAUACAUTT against Tmem192 | inactive: 0.679
84 | GGAUCUGGUUGGCAAGCAUTT against Krt33a | active: 2.87
85 | GGAACAUUUCACCUUUUAGTT against Sptssa | inactive: -1.35
86 | GGAGAUCUAUUCGGACACUTT against Inpp5a | inactive: 1.52
87 | GGACAAAGGUGUCAACUCCTT against Crmp1 | inactive: -1.99
88 | GGUUAUCAAGGACCAAAAATT against Ivl | inactive: -0.555

Row | Sequence | z-score
89 | GCGGUAAGGAACUUAAUGATT against Fv1 | inactive: 0.189
90 | GCUCCAGAUGUCAAAUUAATT against Yipf4 | inactive: -0.23
91 | GGAAUUCGUCAACAACAUGTT against Csn1s1 | inactive: 0.0379
92 | GGCUUUCUCGUUUUGAUAUTT against Nln | inactive: 0.574
93 | GGCCUUUAAACAGAUUGAATT against Zfp37 | inactive: -0.321
94 | GGAACCAAUCUUGGUCUCATT against Tln2 | inactive: -0.66
95 | CCAACGAUGCUGUCAGAAATT against Gys2 | inactive: 0.453
96 | GGAGGAAGAAAUGGUCUGGTT against Tsga8 | inactive: -0.524
97 | GCAUCAAAGGUCUGAGACUTT against Magix | inactive: 0.649
98 | CCGUGAAUGUGAUAAUCCATT against Adamts8 | inactive: 0.417
99 | CCUGAAUGGAAAGAAUUGGTT against Gm6288 | inactive: -0.61
100 | GGCCUUCAGUGACAAAGACTT against Dmrt3 | inactive: -1.18
101 | GCCGUUCCCAUUAUCGUUUTT against Tmem87a | inactive: -0.693
102 | CCACUAAUCUUCUUCUACATT against Olfr1311 | active: -2.08
103 | GGAAGGAAGCUAAAAUACCTT against A130023I24Rik | inactive: 1.51
104 | GGAACUUGGGUGAAUAAAUTT against Serpind1 | inactive: -0.554
105 | GCCUUAAUGCUUCAAGGUGTT against Hspd1 | inactive: 0.021
106 | GUAUUUCUACUAUGUGGAUTT against C030006K11Rik | inactive: 0.484
107 | GCAUGAACACUCUGACUGCTT against Faap100 | inactive: -1.72
